Source: article PMC10516904, “Dual enzyme-powered chemotactic cross β amyloid based functional nanomotors” (Nature Communications, 2023)
These are yes or no findings as the source states them, for the method shown. Some results given as binding are weak or reduced against the parent protein; the word gives no strength.

Protein sequences, listed by entry. Tags and fused reporters are not part of them.
UniProt P00004: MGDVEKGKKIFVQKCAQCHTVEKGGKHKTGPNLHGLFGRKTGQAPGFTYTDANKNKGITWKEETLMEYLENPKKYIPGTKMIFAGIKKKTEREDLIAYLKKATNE

What was measured:
[1] = molecular target: T1, Ac-KLVFFAL-CONH2; assay: co-sedimentation; short nanotubes (sonicated 30 min), Ac-KL 200 uM, exposed urease 15 uM (for dual motors also CytC, 20 uL of 500 uM stock), in water, 1 h incubation, centrifuged 14,000 rpm 30 min 4 C, pellet washed twice; enzyme in the supernatants estimated by Bradford assay; both purified
T1 sequence (peptide, N-terminal acetyl (on the lysine); C-terminal amide): KLVFFAL

[2] = molecular target: T1, Ac-KLVFFAL-CONH2; assay: confocal microscopy (CLSM); fluorophore-labelled enzymes on long and sonicated nanotubes; both purified
[3] = molecular target: T1, Ac-KLVFFAL-CONH2; assay: TEM; urease bound to long and to sonicated nanotubes; both purified

Substance | binding [2] | further results
Cytochrome C (oxidized) (from UniProt P00004 1-105) (enzyme) | – | binding [1]: binds
FITC labelled CytC (from UniProt P00004 1-105) (enzyme) | binds | –
RITC labelled urease (from UniProt P07374 1-840) (enzyme) | binds | –
urease (from UniProt P07374 1-840) (enzyme) | – | binding [3]: binds
